Reference: publication PMC4932730
Results are given in words; binding and its absence hold for the method and conditions named. In cells and extracts the contact can be indirect. Some results given as binding are weak or reduced against the parent protein; the word gives no strength. For part of these data: Where a sequence is shown, tags or fusion partners need not be part of it.

Sequences of proteins named here, by UniProt entry; tags and fusion partners are left off.
UniProt P46937: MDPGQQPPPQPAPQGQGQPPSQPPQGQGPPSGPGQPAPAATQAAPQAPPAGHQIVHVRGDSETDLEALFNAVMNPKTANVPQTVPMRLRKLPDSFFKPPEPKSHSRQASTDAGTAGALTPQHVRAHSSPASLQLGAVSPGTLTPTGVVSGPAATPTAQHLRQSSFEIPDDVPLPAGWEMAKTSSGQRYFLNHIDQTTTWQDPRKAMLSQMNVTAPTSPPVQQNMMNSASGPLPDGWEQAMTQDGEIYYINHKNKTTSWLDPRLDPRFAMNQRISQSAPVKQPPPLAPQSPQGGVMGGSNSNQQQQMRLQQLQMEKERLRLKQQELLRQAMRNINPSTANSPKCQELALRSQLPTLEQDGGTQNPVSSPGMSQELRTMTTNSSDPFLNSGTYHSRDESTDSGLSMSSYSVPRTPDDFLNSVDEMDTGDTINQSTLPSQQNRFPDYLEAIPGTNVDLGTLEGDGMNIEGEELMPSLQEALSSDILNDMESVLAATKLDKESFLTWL
UniProt P62136: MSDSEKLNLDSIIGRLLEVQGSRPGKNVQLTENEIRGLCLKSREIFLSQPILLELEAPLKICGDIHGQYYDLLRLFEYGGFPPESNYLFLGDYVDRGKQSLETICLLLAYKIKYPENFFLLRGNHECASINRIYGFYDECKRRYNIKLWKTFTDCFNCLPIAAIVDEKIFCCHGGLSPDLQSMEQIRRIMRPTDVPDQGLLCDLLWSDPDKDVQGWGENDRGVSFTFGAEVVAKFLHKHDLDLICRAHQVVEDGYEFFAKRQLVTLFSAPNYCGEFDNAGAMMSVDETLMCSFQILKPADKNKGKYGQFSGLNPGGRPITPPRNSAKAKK
UniProt A0A8C0NGY6: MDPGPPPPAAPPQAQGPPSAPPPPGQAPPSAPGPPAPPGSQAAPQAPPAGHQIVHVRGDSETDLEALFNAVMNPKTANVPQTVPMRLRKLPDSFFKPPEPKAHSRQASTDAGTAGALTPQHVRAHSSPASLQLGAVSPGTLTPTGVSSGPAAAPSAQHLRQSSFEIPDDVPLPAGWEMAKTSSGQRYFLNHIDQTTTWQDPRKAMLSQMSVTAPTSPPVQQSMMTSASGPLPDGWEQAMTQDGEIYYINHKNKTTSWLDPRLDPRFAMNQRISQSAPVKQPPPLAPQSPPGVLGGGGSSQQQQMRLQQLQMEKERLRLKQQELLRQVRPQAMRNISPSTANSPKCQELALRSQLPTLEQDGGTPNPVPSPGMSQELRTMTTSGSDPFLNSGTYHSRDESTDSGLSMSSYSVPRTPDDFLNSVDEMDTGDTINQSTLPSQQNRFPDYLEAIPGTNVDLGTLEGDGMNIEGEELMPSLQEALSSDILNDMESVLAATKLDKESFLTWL

Legend:
[1] = target: endogenous YAP of MDCK II cells (dog (endogenous in MDCK II)); test: co-IP; nuclear and cytoplasmic fractions of MDCK II cells at low cell density; IP with anti-YAP or anti-LATS1 antibodies; western blot
[2] = target: hemagglutinin (HA)-tagged YAP (Yes-associated protein) (UniProt P46937); test: co-IP; 293T cells transiently transfected with tagged constructs; lysis in RIPA buffer; IP and reverse IP with anti-FLAG or anti-HA antibodies and protein A/G beads overnight at 4 °C; western blot
[3] = target: T1, endogenous LATS1 of 293T cells (human (endogenous in 293T)) (UniProt O95835); test: co-IP; endogenous proteins of 293T cells at low cell density; IP with anti-YAP antibodies (cells transfected with FLAG-Par3) or anti-LATS1 antibodies (cells transfected with siPar3); western blot
T1 sequence: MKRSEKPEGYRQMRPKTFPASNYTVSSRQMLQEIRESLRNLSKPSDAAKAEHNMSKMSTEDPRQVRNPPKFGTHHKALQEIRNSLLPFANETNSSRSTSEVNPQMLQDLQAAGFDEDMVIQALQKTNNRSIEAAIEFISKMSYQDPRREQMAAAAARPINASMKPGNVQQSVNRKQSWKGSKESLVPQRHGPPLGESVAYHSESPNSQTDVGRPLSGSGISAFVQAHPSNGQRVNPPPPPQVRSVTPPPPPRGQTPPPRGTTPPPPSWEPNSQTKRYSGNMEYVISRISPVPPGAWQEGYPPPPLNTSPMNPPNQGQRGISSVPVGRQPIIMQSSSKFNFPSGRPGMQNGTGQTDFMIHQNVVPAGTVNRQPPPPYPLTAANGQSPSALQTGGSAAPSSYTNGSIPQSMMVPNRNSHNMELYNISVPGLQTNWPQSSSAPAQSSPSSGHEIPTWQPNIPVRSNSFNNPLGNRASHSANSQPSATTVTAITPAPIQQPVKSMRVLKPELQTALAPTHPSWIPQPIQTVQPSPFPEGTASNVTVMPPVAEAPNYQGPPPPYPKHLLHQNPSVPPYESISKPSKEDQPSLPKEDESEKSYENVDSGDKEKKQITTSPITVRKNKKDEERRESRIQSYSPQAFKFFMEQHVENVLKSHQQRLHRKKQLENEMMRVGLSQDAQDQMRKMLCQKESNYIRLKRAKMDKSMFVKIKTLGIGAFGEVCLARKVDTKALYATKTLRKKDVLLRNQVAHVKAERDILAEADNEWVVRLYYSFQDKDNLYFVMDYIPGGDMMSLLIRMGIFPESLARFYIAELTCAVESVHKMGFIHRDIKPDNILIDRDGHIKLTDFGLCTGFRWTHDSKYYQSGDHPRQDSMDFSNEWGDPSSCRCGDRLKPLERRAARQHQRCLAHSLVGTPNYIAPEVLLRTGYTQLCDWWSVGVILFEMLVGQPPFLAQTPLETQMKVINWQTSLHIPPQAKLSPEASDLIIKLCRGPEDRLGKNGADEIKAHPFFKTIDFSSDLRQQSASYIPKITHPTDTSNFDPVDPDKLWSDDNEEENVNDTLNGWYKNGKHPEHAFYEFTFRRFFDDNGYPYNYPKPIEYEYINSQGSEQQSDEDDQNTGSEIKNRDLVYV

[4] = target: endogenous YAP of 293T cells (human (endogenous in 293T)) (UniProt P46937); test: as above
[5] = target: T2, FLAG-LATS1 (large tumor suppressor kinase 1) (UniProt O95835); test: co-IP; 293T cells transiently transfected with tagged constructs; lysis in RIPA buffer; IP and reverse IP with anti-FLAG or anti-HA antibodies and protein A/G beads overnight at 4 °C; western blot
T2 sequence: T1 sequence

[6] = target: FLAG-PP1A (protein phosphatase 1, α subunit) (UniProt P62136); test: as above
[7] = target: T3, GST-tagged PDZ3 domain of Par3 (577–694 aa) (human) (UniProt Q8TEW0); test: pull-down; 3 μg purified GST fusion protein on glutathione 4B beads incubated with lysate of 293T cells transfected with HA-YAP; lysis buffer 50 mM HEPES pH 7.5, 1% Triton X-100, 150 mM NaCl; washed with HNTG buffer; only the target purified
T3 sequence: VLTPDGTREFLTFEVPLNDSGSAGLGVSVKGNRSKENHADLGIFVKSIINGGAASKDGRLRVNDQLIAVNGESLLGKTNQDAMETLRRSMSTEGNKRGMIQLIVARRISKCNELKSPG

[8] = target: FLAG-tagged Par3 (partitioning-defective 3), long form (180 kDa form) (human) (UniProt Q8TEW0); test: co-IP; 293T cells transiently transfected with tagged constructs; lysis in RIPA buffer; IP and reverse IP with anti-FLAG or anti-HA antibodies and protein A/G beads overnight at 4 °C; western blot
[9] = target: endogenous LATS1 of MDCK II cells (dog (endogenous in MDCK II)); test: co-IP; nuclear and cytoplasmic fractions of MDCK II cells at low cell density; IP with anti-YAP or anti-LATS1 antibodies; western blot

endogenous LATS1 of MDCK II cells (from UniProt A0A8I3S3J7 1-1127) (enzyme)
binding [1]: binds

FLAG-tagged Par3 (partitioning-defective 3), long form (180 kDa form) (from UniProt Q8TEW0 1-1356)
binding [2]: binds

endogenous PP1A of 293T cells (from UniProt P62136 1-330) (enzyme)
binding [3]: binds | binding [4]: binds

GFP-Par3 (from UniProt Q8TEW0 1-1356)
binding [5]: binds | binding [6]: binds

hemagglutinin (HA)-tagged YAP (Yes-associated protein) (from UniProt P46937 1-504)
binding [7]: binds | binding [8]: binds

endogenous YAP of MDCK II cells (from UniProt A0A8C0NGY6 1-506)
binding [9]: binds
